Six molecules from publication doi:10.1101/2025.07.28.667104 can be followed below.

Amino acid sequences for entries named in this document (tags omitted). A change or cut given only in a name is not applied to a line headed by its entry. Residues count along the entry.
UniProt P23497: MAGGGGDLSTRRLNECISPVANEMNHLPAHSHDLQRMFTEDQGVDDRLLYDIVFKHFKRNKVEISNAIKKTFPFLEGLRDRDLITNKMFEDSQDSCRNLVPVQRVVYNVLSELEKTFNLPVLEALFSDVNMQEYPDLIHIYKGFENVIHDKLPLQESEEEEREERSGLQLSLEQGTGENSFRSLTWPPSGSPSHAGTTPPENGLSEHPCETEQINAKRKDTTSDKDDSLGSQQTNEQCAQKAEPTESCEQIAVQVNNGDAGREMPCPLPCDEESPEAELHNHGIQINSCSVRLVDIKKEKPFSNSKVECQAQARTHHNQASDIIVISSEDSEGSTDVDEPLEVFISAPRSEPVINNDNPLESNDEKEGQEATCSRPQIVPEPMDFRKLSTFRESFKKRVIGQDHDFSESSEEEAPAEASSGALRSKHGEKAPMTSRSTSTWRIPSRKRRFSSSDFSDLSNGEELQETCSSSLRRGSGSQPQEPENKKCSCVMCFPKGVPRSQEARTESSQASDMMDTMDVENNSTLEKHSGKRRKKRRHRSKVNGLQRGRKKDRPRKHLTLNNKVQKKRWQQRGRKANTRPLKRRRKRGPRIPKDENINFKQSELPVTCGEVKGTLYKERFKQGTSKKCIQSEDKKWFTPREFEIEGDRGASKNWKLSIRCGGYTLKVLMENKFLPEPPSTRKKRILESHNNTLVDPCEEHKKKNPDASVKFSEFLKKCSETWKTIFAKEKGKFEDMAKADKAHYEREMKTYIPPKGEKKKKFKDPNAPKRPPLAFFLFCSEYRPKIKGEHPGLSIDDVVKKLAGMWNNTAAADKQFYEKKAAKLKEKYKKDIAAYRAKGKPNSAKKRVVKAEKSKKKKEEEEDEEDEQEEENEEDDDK
UniProt P61956: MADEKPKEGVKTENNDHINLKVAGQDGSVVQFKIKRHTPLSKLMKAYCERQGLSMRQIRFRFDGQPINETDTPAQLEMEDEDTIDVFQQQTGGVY
UniProt P50750: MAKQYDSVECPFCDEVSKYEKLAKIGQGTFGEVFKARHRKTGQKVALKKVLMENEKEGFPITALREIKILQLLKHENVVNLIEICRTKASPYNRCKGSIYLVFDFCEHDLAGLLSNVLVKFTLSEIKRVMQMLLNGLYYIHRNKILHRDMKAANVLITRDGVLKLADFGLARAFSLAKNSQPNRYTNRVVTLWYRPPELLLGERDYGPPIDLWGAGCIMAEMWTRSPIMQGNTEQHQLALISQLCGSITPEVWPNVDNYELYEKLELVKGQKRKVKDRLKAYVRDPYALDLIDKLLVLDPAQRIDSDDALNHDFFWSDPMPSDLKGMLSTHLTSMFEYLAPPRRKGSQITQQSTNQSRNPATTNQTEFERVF
UniProt Q9UER7: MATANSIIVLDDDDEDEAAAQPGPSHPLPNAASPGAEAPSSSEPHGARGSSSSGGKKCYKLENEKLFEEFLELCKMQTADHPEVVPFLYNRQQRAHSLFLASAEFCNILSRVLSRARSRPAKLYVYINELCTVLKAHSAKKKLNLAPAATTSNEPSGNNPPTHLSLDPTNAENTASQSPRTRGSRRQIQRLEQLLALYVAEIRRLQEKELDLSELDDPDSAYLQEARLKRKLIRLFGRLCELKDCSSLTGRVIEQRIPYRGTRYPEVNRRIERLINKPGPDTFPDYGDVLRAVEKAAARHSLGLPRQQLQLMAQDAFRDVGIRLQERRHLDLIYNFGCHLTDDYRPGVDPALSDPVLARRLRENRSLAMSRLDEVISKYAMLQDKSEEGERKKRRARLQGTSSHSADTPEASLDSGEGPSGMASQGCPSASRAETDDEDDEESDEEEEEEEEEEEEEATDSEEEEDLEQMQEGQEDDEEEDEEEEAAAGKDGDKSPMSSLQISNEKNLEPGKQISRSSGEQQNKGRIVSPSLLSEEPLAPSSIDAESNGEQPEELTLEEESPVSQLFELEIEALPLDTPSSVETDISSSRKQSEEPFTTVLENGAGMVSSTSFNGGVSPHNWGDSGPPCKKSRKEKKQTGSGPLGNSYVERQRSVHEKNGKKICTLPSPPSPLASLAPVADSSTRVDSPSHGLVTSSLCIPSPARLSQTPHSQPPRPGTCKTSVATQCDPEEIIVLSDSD
UniProt P46100: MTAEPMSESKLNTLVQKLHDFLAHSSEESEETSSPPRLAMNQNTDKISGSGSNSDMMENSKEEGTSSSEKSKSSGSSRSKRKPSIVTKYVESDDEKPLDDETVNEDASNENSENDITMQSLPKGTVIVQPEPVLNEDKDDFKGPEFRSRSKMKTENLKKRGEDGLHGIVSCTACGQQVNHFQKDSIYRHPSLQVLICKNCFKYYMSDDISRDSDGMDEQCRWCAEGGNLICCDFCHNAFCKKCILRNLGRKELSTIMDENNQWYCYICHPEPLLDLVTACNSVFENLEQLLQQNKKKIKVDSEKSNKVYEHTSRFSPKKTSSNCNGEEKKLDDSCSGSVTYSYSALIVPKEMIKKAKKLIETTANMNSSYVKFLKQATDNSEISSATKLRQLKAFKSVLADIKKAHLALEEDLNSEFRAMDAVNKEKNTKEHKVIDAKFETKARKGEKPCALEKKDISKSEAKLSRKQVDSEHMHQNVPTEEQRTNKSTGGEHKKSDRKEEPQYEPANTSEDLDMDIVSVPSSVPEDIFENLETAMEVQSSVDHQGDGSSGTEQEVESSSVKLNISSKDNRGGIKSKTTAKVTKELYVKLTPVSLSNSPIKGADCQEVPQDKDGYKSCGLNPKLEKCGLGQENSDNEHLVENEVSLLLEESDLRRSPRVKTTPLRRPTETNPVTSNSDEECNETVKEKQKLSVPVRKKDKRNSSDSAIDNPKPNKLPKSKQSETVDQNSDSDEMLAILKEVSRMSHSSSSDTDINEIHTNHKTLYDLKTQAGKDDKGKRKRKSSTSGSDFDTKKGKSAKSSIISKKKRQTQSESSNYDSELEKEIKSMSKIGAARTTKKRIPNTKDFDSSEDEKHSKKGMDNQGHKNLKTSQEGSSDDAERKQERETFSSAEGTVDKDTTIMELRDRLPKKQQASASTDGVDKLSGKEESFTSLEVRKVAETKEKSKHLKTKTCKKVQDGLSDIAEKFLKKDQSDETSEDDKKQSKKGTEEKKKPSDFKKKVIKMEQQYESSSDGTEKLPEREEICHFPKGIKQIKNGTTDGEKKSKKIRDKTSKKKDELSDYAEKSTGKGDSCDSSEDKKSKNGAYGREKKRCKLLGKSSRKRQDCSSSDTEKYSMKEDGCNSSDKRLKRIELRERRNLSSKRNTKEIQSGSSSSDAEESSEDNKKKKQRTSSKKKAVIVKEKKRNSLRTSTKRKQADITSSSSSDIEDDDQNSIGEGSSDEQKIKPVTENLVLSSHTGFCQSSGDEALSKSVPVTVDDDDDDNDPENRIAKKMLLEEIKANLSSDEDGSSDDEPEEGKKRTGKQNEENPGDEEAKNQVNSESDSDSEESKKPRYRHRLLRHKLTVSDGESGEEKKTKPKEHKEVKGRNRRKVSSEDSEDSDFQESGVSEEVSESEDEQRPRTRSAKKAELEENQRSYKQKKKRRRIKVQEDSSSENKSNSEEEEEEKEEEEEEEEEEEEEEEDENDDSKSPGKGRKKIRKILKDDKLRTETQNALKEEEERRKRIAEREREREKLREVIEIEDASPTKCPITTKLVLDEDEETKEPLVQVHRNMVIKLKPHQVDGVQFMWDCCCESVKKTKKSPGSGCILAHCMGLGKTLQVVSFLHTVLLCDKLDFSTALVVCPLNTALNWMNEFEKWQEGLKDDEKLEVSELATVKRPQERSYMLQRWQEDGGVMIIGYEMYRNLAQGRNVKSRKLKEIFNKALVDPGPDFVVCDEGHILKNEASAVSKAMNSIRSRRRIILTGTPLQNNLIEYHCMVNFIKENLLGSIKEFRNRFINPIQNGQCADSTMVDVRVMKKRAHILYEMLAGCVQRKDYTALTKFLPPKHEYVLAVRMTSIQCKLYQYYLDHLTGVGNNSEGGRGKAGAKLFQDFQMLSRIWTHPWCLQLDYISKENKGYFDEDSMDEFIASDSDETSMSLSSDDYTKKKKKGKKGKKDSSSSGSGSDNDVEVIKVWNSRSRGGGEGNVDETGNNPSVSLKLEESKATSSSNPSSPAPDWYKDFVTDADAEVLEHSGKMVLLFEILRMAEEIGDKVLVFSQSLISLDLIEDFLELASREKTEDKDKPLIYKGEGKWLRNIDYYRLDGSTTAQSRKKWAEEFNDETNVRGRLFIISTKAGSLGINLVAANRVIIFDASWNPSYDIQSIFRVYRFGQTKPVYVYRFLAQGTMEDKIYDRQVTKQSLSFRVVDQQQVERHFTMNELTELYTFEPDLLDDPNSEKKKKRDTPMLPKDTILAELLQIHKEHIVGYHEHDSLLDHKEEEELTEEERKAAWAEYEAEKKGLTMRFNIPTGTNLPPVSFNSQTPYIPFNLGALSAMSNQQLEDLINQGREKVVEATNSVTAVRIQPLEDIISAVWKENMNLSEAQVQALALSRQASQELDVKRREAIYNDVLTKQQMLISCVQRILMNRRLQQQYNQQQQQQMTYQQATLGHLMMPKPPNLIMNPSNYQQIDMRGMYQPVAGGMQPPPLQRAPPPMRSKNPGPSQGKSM
UniProt P63165, residues 1-97: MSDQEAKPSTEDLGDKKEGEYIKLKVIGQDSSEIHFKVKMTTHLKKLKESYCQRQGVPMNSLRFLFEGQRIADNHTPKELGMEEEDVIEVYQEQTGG

Like-named read-outs stand apart in the source and are kept apart here. These are yes or no findings as the source states them, for the method shown. In cells and extracts the contact can be indirect. Here binding means that the protein was enriched with, or labelled near, the bait; the list need not be complete.

Assay in all cases: proximity labelling
Assay [1] has as its target TurboID-Sp100-HMG (human) (UniProt P23497).
Assay [2] deals with TurboID CTD-Sp100-HMG (human) (UniProt P23497).
In assay [3] the target is TurboID-Sp100-HMG (human) (UniProt P23497). This is another data set of the same source.

With SUMO2 (from UniProt P61956), in assay [1], the binding result is reported as “binds”.

With CDK9 (from UniProt P50750 1-372), the binding result in assay [1] is “binds”.

DAXX (from UniProt Q9UER7 1-740): the binding result in assay [2] and in assay [1] was “binds” each time.

For the molecule ATRX (from UniProt P46100 1-2492), the binding entry in assay [2] is given as “binds”.

Take SUMO1 (from UniProt P63165 1-97): the binding entry in assay [1] is given as “binds”.

B1: SMC6 (protein, UniProt Q96SB8 1-1091)
chain: MAKRKEENFSSPKNAKRPRQEELEDFDKDGDEDECKGTTLTAAEVGIIESIHLKNFMCHSMLGPFKFGSNVNFVVGNNGSGKSAVLTALIVGLGGRAVATNRGSSLKGFVKDGQNSADISITLRNRGDDAFKASVYGNSILIQQHISIDGSRSYKLKSATGSVVSTRKEELIAILDHFNIQVDNPVSVLTQEMSKQFLQSKNEGDKYKFFMKATQLEQMKEDYSYIMETKERTKEQIHQGEERLTELKRQCVEKEERFQSIAGLSTMKTNLESLKHEMAWAVVNEIEKQLNAIRDNIKIGEDRAARLDRKMEEQQVRLNEAEQKYKDIQDKLEKISEETNARAPECMALKADVVAKKRAYNEAEVLYNRSLNEYKALKKDDEQLCKRIEELKKSTDQSLEPERLERQKKISWLKERVKAFQNQENSVNQEIEQFQQAIEKDKEEHGKIKREELDVKHALSYNQRQLKELKDSKTDRLKRFGPNVPALLEAIDDAYRQGHFTYKPVGPLGACIHLRDPELALAIESCLKGLLQAYCCHNHADERVLQALMKRFYLPGTSRPPIIVSEFRNEIYDVRHRAAYHPDFPTVLTALEIDNAVVANSLIDMRGIETVLLIKNNSVARAVMQSQKPPKNCREAFTADGDQVFAGRYYSSENTRPKFLSRDVDSEISDLENEVENKTAQILNLQQHLSALEKDIKHNEELLKRCQLHYKELKMKIRKNISEIRELENIEEHQSVDIATLEDEAQENKSKMKMVEEHMEQQKENMEHLKSLKIEAENKYDAIKFKINQLSELADPLKDELNLADSEVDNQKRGKRHYEEKQKEHLDTLNKKKRELDMKEKELEEKMSQARQICPERIEVEKSASILDKEINRLRQKIQAEHASHGDREEIMRQYQEARETYLDLDSKVRTLKKFIKLLGEIMEHRFKTYQQFRRCLTLRCKLYFDNLLSQRAYCGKMNFDHKNETLSISVQPGEGNKAAFNDMRALSGGERSFSTVCFILSLWSIAESPFRCLDEFDVYMDMVNRRIAMDLILKMADSQRFRQFILLTPQSMSSLPSSKLIRILRMSDPERGQTTLPFRPVTQEEDDDQR
As to B1, the binding result in assay [3] is “binds”.
